## Binding screen against folded nucleic acids

Oligonucleotides screened, 5′ to 3′:
TPP: TPP riboswitch RNA three-way junction, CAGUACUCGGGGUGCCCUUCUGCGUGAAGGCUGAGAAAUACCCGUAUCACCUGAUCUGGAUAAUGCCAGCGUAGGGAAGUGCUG. About 160 hits among about 24,000 compounds.
SAM-II: SAM-II riboswitch RNA pseudoknot, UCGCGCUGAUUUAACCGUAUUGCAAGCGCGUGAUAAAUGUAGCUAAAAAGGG. About 200 hits among about 21,000 compounds.
PreQ1: PreQ1 riboswitch RNA pseudoknot, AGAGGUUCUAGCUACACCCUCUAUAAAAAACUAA. From B. subtilis. About 170 hits among about 24,000 compounds.

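The test is a small-molecule microarray: each compound is printed twice on a reactive slide, and binding shows as fluorescence of the labelled oligonucleotide after washing. The data file lists only calls. An earlier report of the laboratory on the PreQ1, TPP and SAM-II riboswitches (doi:10.1038/s41467-019-09493-3) used 1 µM RNA for 2 h and required a mean Z-score above 3 (spot signal-to-noise against the whole library), a score well above that on a control array, and duplicate spots agreeing (coefficient of variation under 100); it then also set aside compounds that hit other targets, which this list keeps. The cut-offs behind this list may differ. These are primary screening calls, not affinities; a compound without a hit may have attached poorly or may still bind in solution.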
A compound is marked active if it was called a hit and inactive if it was screened but was not.
The compounds are a random part of those screened.
A target missing from an entry has no call listed here.

- Cc1nc2nc(CN)nn2c(C)c1CCC(=O)NCC1CCN(Cc2ccccc2F)CC1 | TPP: inactive; PreQ1: inactive
- Cc1cc(S(=O)(=O)[C@H]2CS(=O)(=O)C[C@@H]2NCc2ccco2)ccc1F | TPP: inactive; PreQ1: inactive
- CC(=O)NC1CCN(c2cc(N3CCOCC3)nc(N)n2)C1 (stereo not drawn) | TPP: inactive; SAM-II: inactive; PreQ1: inactive
- CCCCCCCCCCCC(CC1OC(=O)C1CCCCCC)OC(=O)C(CC(C)C)NC=O (stereo not drawn) | TPP: inactive; SAM-II: inactive; PreQ1: inactive
- CCc1cc(-c2cc(NC3CCNCC3)nc3[nH]ccc23)nc(N(C)C)n1 | TPP: inactive; SAM-II: inactive; PreQ1: inactive
- Nc1nc(=S)c2ncn(C3CCCC3)c2[nH]1 | TPP: inactive; SAM-II: inactive; PreQ1: inactive
- COc1cc(C2Nc3ccccc3-c3nc(SC)nnc3O2)ccc1OCC(=O)O (stereo not drawn) | TPP: inactive; SAM-II: inactive; PreQ1: inactive
- Fc1ccc(OCCCN2CCN(c3ncnc4c3CCNC4)CC2)cc1 | TPP: inactive; SAM-II: inactive; PreQ1: inactive
- COc1ccccc1Oc1ncccc1CNC(=O)C1CCNC1 (stereo not drawn) | TPP: inactive; SAM-II: inactive; PreQ1: inactive
- Cc1ccc2nc(-c3ccsc3)c(NC3CCCCC3)n2c1 | TPP: inactive; SAM-II: inactive; PreQ1: inactive
- CC1=CCC2(CO)COC(c3ccccc3O)C1C2 (stereo not drawn) | TPP: inactive; SAM-II: inactive; PreQ1: inactive
- COc1ccc(CNc2nc3cc(C)ccc3cc2-c2noc(C)n2)cc1 | TPP: inactive; PreQ1: inactive
- COc1ccc(Cn2c(C(=O)O)c(CNCCc3cccs3)c3ccccc32)cc1 | TPP: inactive; PreQ1: inactive
- Cc1cnn(-c2cc(-c3ccccc3CO)ncn2)c1 | TPP: inactive; SAM-II: inactive; PreQ1: inactive
- CCCNC(=O)c1c(N)sc2c1CCCCC2 | TPP: inactive; SAM-II: inactive; PreQ1: inactive
- c1ccc(CNCCOc2ccccn2)nc1 | TPP: inactive; SAM-II: inactive; PreQ1: inactive
- CCCCNc1nc2c(-c3ccccc3)nnn2c2ccccc12 | TPP: inactive; SAM-II: inactive; PreQ1: inactive
- O=c1[nH]nc(CC2CCN(Cc3ccc(CO)o3)CC2)n1-c1ccccc1 | TPP: inactive; SAM-II: inactive; PreQ1: inactive
- O=C1CC(Nc2ccc(N3CCCCC3)cc2)C(=O)N1c1ccccc1F (stereo not drawn) | TPP: inactive; SAM-II: inactive; PreQ1: inactive
- COc1ccc(CNc2ccc(F)cc2C)c2ccccc12 | TPP: inactive; SAM-II: inactive; PreQ1: inactive
- Cc1nc2c(c(N3CC=CC3)n1)CCN(C(=O)c1ccnc(N)c1)CC2 | TPP: inactive; SAM-II: inactive; PreQ1: inactive
- O=C(CCCc1cccs1)N1CCOCC(CO)C1 (stereo not drawn) | TPP: inactive; SAM-II: inactive; PreQ1: inactive
- O=C1C=C(N(CCO)Cc2ccccc2)C2(CCCCC2)O1 | TPP: inactive; SAM-II: inactive; PreQ1: inactive
- CN(Cc1ccccc1)CC1(CO)CCOCC1 | TPP: inactive; SAM-II: inactive; PreQ1: inactive
- O=C1SC(Nc2ccccc2F)C(=O)N1c1ccccc1 (stereo not drawn) | TPP: inactive; SAM-II: inactive; PreQ1: inactive
- CC(C)(C)n1cnc2cc(NCc3ccc(Br)cc3)ccc21 | TPP: inactive; SAM-II: inactive; PreQ1: inactive
- O=C(c1cccc(N2CCS(=O)(=O)CC2)c1)N1CCOCC(CO)C1 (stereo not drawn) | TPP: inactive; SAM-II: inactive; PreQ1: inactive
- Nc1nnnn1CC(=O)N1CCC2(CCC(=O)N(CC3CCCO3)C2)CC1 (stereo not drawn) | TPP: inactive; SAM-II: inactive; PreQ1: inactive
- CN(Cc1nc2cc(Cl)ccc2[nH]1)C(=O)c1ccccc1C1CCNC1 (stereo not drawn) | TPP: inactive; SAM-II: inactive; PreQ1: inactive
- COc1ccc(Nc2ncnc3c2nc2n3CCCC2)cc1 | TPP: inactive; PreQ1: inactive
- Cc1ccc(-c2cc(C(=O)NCCCNc3cccnc3)[nH]n2)o1 | TPP: inactive; SAM-II: inactive; PreQ1: inactive
- COC(=O)C[C@H](N)C(=O)N1CCc2c(nc(N(C)C)nc2N(C)C)C1 | TPP: inactive; SAM-II: inactive; PreQ1: inactive
- CC(C)(C)c1cc(C(O)CSc2nc3ccccc3[nH]2)cc(C(C)(C)C)c1O (stereo not drawn) | TPP: inactive; SAM-II: inactive; PreQ1: inactive
- O=C(CNCC1CCCCC1)NCc1ccccc1F | TPP: inactive; SAM-II: inactive; PreQ1: inactive
- Clc1ccc(-c2nc(NCCN3CCOCC3)c3ccccc3n2)cc1 | TPP: inactive; SAM-II: inactive; PreQ1: inactive
- Cc1cccc(N2CC(=O)C(c3nc4ccccc4n3C)=C2N)c1 | TPP: inactive; PreQ1: inactive
- Cc1cc(C)c(NC(=O)Cn2nnc(C(=O)NCc3ccccc3Cl)c2N)c(C)c1 | TPP: inactive; SAM-II: inactive; PreQ1: inactive
- O=C(Cc1ccc(Cl)c(Cl)c1)N1CCCC(N2CCC(CO)CC2)C1 (stereo not drawn) | TPP: inactive; SAM-II: inactive; PreQ1: inactive
- COc1ccc(CCNCc2ccc(-c3ccc(F)cc3)o2)cc1 | TPP: inactive; PreQ1: inactive

Source: the ROBIN nucleic acid binder screens (doi:10.1002/anie.202211358).